Counter-ions that a name gives are not always drawn. ± gives the standard deviation of the averaged measurements. Some of the results follow. Plates or batches differ in their baseline, so values are only roughly comparable.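 The cells are a mouse kidney inner medullary collecting duct line, silenced either for the ciliary gene Rpgrip1l or with a non-targeting control siRNA.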
Columns and labels:
mIMCD3 [1] = experiment: robust z score of cell number vs plate controls; higher = more cells (less cytotoxic); conditions: 10 µM, 48 h
mIMCD3 [2] = experiment: robust z score of cilia incidence (% cells with single cilium) vs plate controls; higher = more ciliated cells; conditions: 10 µM; 48 h; siRNA: siScr
mIMCD3 [3] = experiment: robust z score of cilia incidence (% cells with single cilium) vs plate controls; higher = more ciliated cells (rescue of cilia loss); conditions: 10 µM; 48 h; siRNA: siRpgrip1l

Row | Compound | robust z score of cell number (mIMCD3 [1]; siRNA: siRpgrip1l) | robust z score of cell number (mIMCD3 [1]; siRNA: siScr) | robust z score of cilia incidence (mIMCD3 [2]) | robust z score of cilia incidence (mIMCD3 [3])
1 | COc1ccc([C@@H]2Sc3ccccc3N(CCN(C)C)C(=O)[C@@H]2OC(C)=O)cc1 [Diltiazem hydrochloride] | -9.98 ± 1.5 | -12.6 ± 11 | 0.401 ± 0.18 | -7.08 ± 5.2
2 | COc1ccc(CN2C(=O)C(=O)c3cc(OC(F)(F)F)ccc32)cc1 | -53.1 ± 51 | -28.3 ± 22 | -18 ± 11 | -24.9 ± 16
3 | N=C(N)NC(=N)Nc1ccccc1 [1-Phenylbiguanide hydrochloride] | -3.66 ± 1.3 | -4.9 ± 3.2 | 0.401 ± 1.9 | -8 ± 2.2
4 | C[C@@H]1C[C@H]2[C@@H]3CCC4=CC(=O)C=C[C@]4(C)[C@@]3(F)[C@@H](O)C[C@]2(C)[C@@]1(O)C(=O)CO [Dexamethasone] | -30.4 ± 28 | -4.45 ± 2.2 | -1.85 ± 2.5 | -18.1 ± 0.3
5 | Nc1c(S(=O)(=O)O)cc(Nc2cccc3ccccc23)c2c1C(=O)c1ccccc1C2=O | -27.9 ± 8.8 | -128 ± 99 | -40.6 ± 8.4 | -46.8 ± 7.4
6 | CN1CCC[C@@H]1CCO[C@](C)(c1ccccc1)c1ccc(Cl)cc1 [Clemastine fumarate] | -139 ± 150 | -40.2 ± 9 | -26.9 ± 9.2 | -403 ± 240
7 | N#C/C(=C\c1ccc(O)c(O)c1)C(=O)OCCc1cccs1 | -56.2 ± 56 | -28 ± 22 | -15.3 ± 11 | -24.1 ± 14
8 | CNC(=O)[C@@H](Cc1ccccc1)N(C)C(=O)[C@@H](Cc1ccc2ccccc2c1)N(C)C(=O)/C=C/CC(C)(C)N [Tabimorelin] | -7.97 ± 2.8 | -2.91 ± 1.4 | -0.477 ± 3.4 | -13.6 ± 12
9 | C=C1C(=O)O[C@@H]2/C=C(\C)CC/C=C(\C)CC[C@@H]12 [Costunolide] | -7.81 ± 1.8 | -49.1 ± 51 | -5.68 ± 4.9 | -16.1 ± 1.6
10 | COc1ccc2c(c1)c(CC(=O)N1CCOCC1)c(C)n2C(=O)c1ccc(Cl)cc1 | -18.5 ± 24 | -4.43 ± 2.4 | -0.596 ± 1.5 | -8.17 ± 2
11 | NC(N)=NC(N)=Nc1cccc(Cl)c1 [m-Chlorophenylbiguanide hydrochloride] | -36.4 ± 43 | -14.5 ± 14 | 0.651 ± 3 | -10.4 ± 12
12 | O=C1NC(=O)c2cc(Nc3ccc(F)cc3)c(Nc3ccc(F)cc3)cc21 | -29.9 ± 15 | -27.2 ± 5 | -52.4 ± 39 | -35 ± 20
13 | CC1(C)CCC(C)(C)c2cc(C3(c4ccc(C(=O)O)cc4)OCCO3)ccc21 | -28.8 ± 35 | -5.86 ± 0.94 | -6.14 ± 9.3 | -22 ± 21
14 | O=C(C=Cc1ccccc1)NC(NC(=S)Nc1ccc(Cl)cc1)C(Cl)(Cl)Cl (configuration not stated) | -52.6 ± 53 | -26.9 ± 23 | -11.3 ± 0.98 | -20.9 ± 8.7
15 | CC(C1=C(CCN(C)C)Cc2ccccc21)c1ccccn1 (stereo in doubt) [(S)-(+)-Dimethindene maleate] | -17.7 ± 18 | -1.6 ± 2.5 | -1.4 ± 5.5 | -8.11 ± 1.9
16 | Cc1[nH]c(/C=C2\C(=O)Nc3ccc(S(=O)(=O)Cc4c(Cl)cccc4Cl)cc32)c(C)c1C(=O)N1CCC[C@@H]1CN1CCCC1 | -9.15 ± 9.2 | -7.28 ± 3.1 | -16.2 ± 8.7 | -12.8 ± 3.1
17 | CC(C)NCC(O)COc1ccc(CC(N)=O)cc1 (racemic) [(RS)-Atenolol] | 1.83 ± 4 | -6.02 ± 1.6 | 1.01 ± 0.38 | -9.54 ± 6
18 | CNC(=C[N+](=O)[O-])NCCSCc1ccc(CN(C)C)o1 [Ranitidine hydrochloride] | 4.13 ± 8.7 | 2.41 ± 4.4 | -3.86 ± 0.91 | -28.2 ± 23
19 | COc1ccc(S(=O)(=O)N2c3ccc(Cl)cc3[C@](O)(c3ccccc3Cl)[C@@H]2C(=O)N2CCC[C@H]2C(N)=O)cc1OC | -6.01 ± 1.1 | -0.36 ± 6.5 | 1.05 ± 0.67 | -9.22 ± 6.1
20 | O=C(O)c1ccc2cc(-c3ccc(O)c(C45CC6CC(CC(C6)C4)C5)c3)ccc2c1 | -184 ± 200 | -43.3 ± 11 | -45.8 ± 12 | -537 ± 300
21 | COc1ccc(-c2oc3cc(OC)ccc3c2C(=O)c2ccc(C#N)cc2)cc1 | -6.7 ± 4 | -0.223 ± 1.9 | -2.31 ± 2.6 | -4.41 ± 2.3
22 | O=C(O)C1CCCN(CCC=C(c2ccccc2)c2ccccc2)C1 (configuration not stated) | -7.31 ± 2.5 | 2.71 ± 2.5 | -0.307 ± 0.43 | -15.4 ± 3.2

Whole records as entered above. Order of values: robust z score of cell number (mIMCD3 [1]; siRNA: siRpgrip1l) | robust z score of cell number (mIMCD3 [1]; siRNA: siScr) | robust z score of cilia incidence (mIMCD3 [2]) | robust z score of cilia incidence (mIMCD3 [3])
N=C(N)NC(=N)Nc1ccccc1 [1-Phenylbiguanide hydrochloride] is listed as -3.66 ± 1.3 | -4.9 ± 3.2 | 0.401 ± 1.9 | -8 ± 2.2
CC1(C)CCC(C)(C)c2cc(C3(c4ccc(C(=O)O)cc4)OCCO3)ccc21 is listed as -28.8 ± 35 | -5.86 ± 0.94 | -6.14 ± 9.3 | -22 ± 21

(list continues)

Row | Compound | robust z score of cell number (mIMCD3 [1]; siRNA: siRpgrip1l) | robust z score of cell number (mIMCD3 [1]; siRNA: siScr) | robust z score of cilia incidence (mIMCD3 [2]) | robust z score of cilia incidence (mIMCD3 [3])
23 | Oc1ccc(-c2c(-c3ccccc3)nn3c(C(F)(F)F)cc(C(F)(F)F)nc23)cc1 | -32.4 ± 11 | -138 ± 100 | -65.1 ± 16 | -57.7 ± 8.4
24 | CCCC[C@@H](C=O)NC(=O)[C@H](CC(C)C)NC(=O)OCc1ccccc1 [Calpeptin] | 2.1 ± 2.5 | -4.12 ± 5.5 | 0.752 ± 1.1 | -9.23 ± 6.3
25 | Cc1cc(C)cc(C(=O)N(C)[C@H](Cc2ccc(-c3ccccc3)cc2)C(=O)N[C@@H](Cc2c[nH]c3ccccc23)C(=O)O)c1 | -44.8 ± 41 | -44.6 ± 29 | -110 ± 56 | -118 ± 100
26 | O/N=C/c1ccc(-c2ccc(O)c(F)c2)c(Cl)c1O | -7.39 ± 3.9 | -4.29 ± 1.6 | -6.85 ± 12 | -6.83 ± 1.6
27 | Cc1noc(NS(=O)(=O)c2ccc(N)cc2)c1C [Sulfisoxazole] | -2 ± 2.7 | -1.66 ± 3.3 | 1.11 ± 5 | -6.86 ± 1.7
28 | CC(C)(CO)Cc1cc(C(C)(C)C)c(O)c(C(C)(C)C)c1 | 8.36 ± 27 | -0.631 ± 8.9 | -1.98 ± 0.032 | -209 ± 92
29 | COP(=O)(OC)OC(c1ccc(Cl)cc1)P(=O)(OC)OC (configuration not stated) | -4.11 ± 0.68 | -5.78 ± 6.3 | -1.58 ± 2.8 | -17.6 ± 15
30 | CC#CCOC(=O)c1c(C)nc2sc3c(c2c1N)CCC(O)C3 (configuration not stated) | -139 ± 150 | -32.5 ± 5.6 | -20 ± 6.8 | -410 ± 250
31 | COc1nc(C)nc(Cl)c1NC1=NCCN1 [Moxonidine hydrochloride] | -3.96 ± 4.4 | -3.4 ± 6.7 | -11.3 ± 14 | -10.3 ± 5.6
32 | O=c1cc(-c2cccc3c2Sc2ccccc2S3)oc(N2CCOCC2)c1 | -26.3 ± 25 | -12.8 ± 11 | -17.8 ± 4.4 | -14.2 ± 4.9
33 | CCCCCCCCCCCCCCCC(=O)C(F)(F)F | -14.9 ± 16 | 2.06 ± 3 | 1.56 ± 2.9 | -137 ± 88
34 | COc1ccc2cc([C@H](C)C(=O)O)ccc2c1 [Naproxen sodium] | 0.802 ± 4 | -23.2 ± 3.4 | 0.503 ± 1.4 | -9.05 ± 2
35 | CC(C)c1ccc2c(c1)CC[C@H]1[C@](C)(CN)CCC[C@]21C [Lylamine hydrochloride] | -41 ± 26 | -54.7 ± 29 | -35 ± 16 | -55.3 ± 1.4
36 | CC[C@H](C)C(=O)O[C@H]1C[C@H](O)C=C2C=C[C@H](C)[C@H](CC[C@@H](O)C[C@@H](O)CC(=O)O)[C@H]21 [Pravastatin sodium salt] | -3.8 ± 2.8 | -3.61 ± 0.24 | 0.388 ± 0.7 | -9.76 ± 4.2
37 | Cc1ccc(/C(=C\CN2CCCC2)c2ccccn2)cc1 [trans-Triprolidine hydrochloride] | 15 ± 8.8 | 17 ± 19 | -2.68 ± 1.3 | -16.2 ± 1.6
38 | O=C(O)COc1ccc(OCCNC[C@H](O)COc2ccccc2)cc1 [ICI 215,001 hydrochloride] | -2.61 ± 1.3 | 0.15 ± 1.7 | -3.51 ± 1.2 | -9.36 ± 4.3
39 | O=C(NC(NC(=S)Nc1ccc(F)c([N+](=O)[O-])c1)C(Cl)(Cl)Cl)C(c1ccccc1)c1ccccc1 (configuration not stated) | -32.9 ± 10 | -144 ± 110 | -67 ± 18 | -53.8 ± 5.9
40 | CN(C)C(=O)C(=O)c1cn(C)c2cc(Cl)c(C(=O)N3CCC(Cc4ccc(F)cc4)CC3)cc12 | -43.6 ± 37 | -16.6 ± 16 | -4.42 ± 2.2 | -24.8 ± 24
41 | CSc1ccc2c(c1)C(N1CCN(C)CC1)Cc1ccccc1S2 (configuration not stated) [Methiothepin maleate] | -121 ± 86 | -161 ± 140 | -16 ± 0.79 | -61.7 ± 10
42 | CCCCCCCCCCCCCCCC(=O)NCCO [Palmitoylethanolamide] | -3.48 ± 1.3 | -0.0934 ± 2.1 | -0.744 ± 4 | -8.7 ± 2.5
43 | COc1cccc(NC(=O)/C=C/c2ccc(Cl)cc2)c1 | -130 ± 140 | -31.2 ± 8.9 | -23.6 ± 14 | -455 ± 270

Source: the supplement of paper PMC12009310
